Publication PMC6527379
Results are given in words; binding and its absence hold for the method and conditions named. In cells and extracts the contact can be indirect. Binding can be weak; no strength is given.

Experiments:
[1] = target: β-tubulin (human (endogenous in T47D)); test: FRET or BRET; acceptor photobleaching FRET on fixed, immunostained cells (donor FITC, acceptor rhodamine on secondary antibodies), confocal microscopy; cells treated with EGF (100 nM) or E2 (10 nM; 30 minutes or 6 hours)
[2] = target: E-cadherin (human (endogenous in T47D)); test: as above
[3] = target: E-cadherin (human (endogenous in T47D)); test: co-IP; endogenous proteins of T47D cells lysed in RIPA buffer; ~2 mg lysate with 2 ug anti-E-cadherin or anti-β-catenin antibody overnight at 4°C, protein A/G agarose beads, western blot; cells with or without EGTA (4 mM), Ca2+ (1.8 mM) added after EGTA; irrelevant IgG as negative control

Measured: binding

B1: Small G protein signalling modulator 2 (SGSM2) (protein, UniProt O43147 1-1006)
chain: MGSAEDAVKEKLLWNVKKEVKQIMEEAVTRKFVHEDSSHIIALCGAVEACLLHQLRRRAAGFLRSDKMAALFTKVGKTCPVAGEICHKVQELQQQAEGRKPSGVSQEALRRQGSASGKAPALSPQALKHVWVRTALIEKVLDKVVQYLAENCSKYYEKEALLADPVFGPILASLLVGPCALEYTKLKTADHYWTDPSADELVQRHRIRGPPTRQDSPAKRPALGIRKRHSSGSASEDRLAACARECVESLHQNSRTRLLYGKNHVLVQPKEDMEAVPGYLSLHQSAESLTLKWTPNQLMNGTLGDSELEKSVYWDYALVVPFSQVVCIHCHQQKSGGTLVLVSQDGIQRPPLHFPQGGHLLSFLSCLENGLLPRGQLEPPLWTQQGKGKVFPKLRKRSSIRSVDMEEMGTGRATDYVFRIIYPGHRHEHNAGDMIEMQGFGPSLPAWHLEPLCSQGSSCLSCSSSSSPHATPSHCSCIPDRLPLRLLCESMKRQIVSRAFYGWLAHCRHLSTVRTHLSALVHHSVIPPDRPPGASAGLTKDVWSKYQKDKKNYKELELLRQVYYGGIEHEIRKDVWPFLLGHYKFGMSKKEMEQVDAVVAARYQQVLAEWKACEVVVRQREREAHPATRTKFSSGSSIDSHVQRLIHRDSTISNDVFISVDDLEPPEPQDPEDSRPKPEQEAGPGTPGTAVVEQQHSVEFDSPDSGLPSSRNYSVASGIQSSLDEGQSVGFEEEDGGGEEGSSGPGPAAHTLREPQDPSQEKPQAGELEAGEELAAVCAAAYTIELLDTVALNLHRIDKDVQRCDRNYWYFTPPNLERLRDVMCSYVWEHLDVGYVQGMCDLLAPLLVTLDNDQLAYSCFSHLMKRMSQNFPNGGAMDTHFANMRSLIQILDSELFELMHQNGDYTHFYFCYRWFLLDFKRELLYEDVFAVWEVIWAARHISSEHFVLFIALALVEAYREIIRDNNMDFTDIIKFFNERAEHHDAQEILRIARDLVHKVQMLIENK
binds: [1] | [2] | [3]
